Tested on: CTV-1
Experiment: 50% cell death in three-day growth
Assay type: cell-based
Conditions: Homo sapiens, 72 h; three-day growth of CTV-1; read-out: final concentration that led to 50% cell death
Method: Valproic acid (VPA) (Sigma-Aldrich, MO) at 10^−2 M in dimethyl sulfoxide (DMSO), was stocked at −20° C. Fresh dilution of chemicals were prepared before the experiments.
CTV-1, Molt-3, THP-1, MCR-5, J5, LPC and Hep3B cell lines were obtained from the American Type Culture Collection (Rockville, Md.). CTV-1 and Molt-3 and were grown in RPMI 1640 medium supplemented with 10% fetal bovine serum (FBS); THP-1, MCR5, J5, LPC and Hep3B were grown in Dulbecco's modified Eagle's medium (DMEM, Gibco, Grand Island, N.Y.) supplemented with 10% FBS. All were grown at 37° C. in a humidified atmosphere containing 5% CO2.

Compound O=C(CCCCCCC(=O)Nc1ccccc1)NO [SAHA, Suberoylanilide hydroxamic acid] has an IC50 of 1000 nM.

From patent publication US10668093B2, “Method for prolonging the over survival of a cancer patient” (National Yang-Ming University, priority 2015, dated 2020)
